Laboratory results from PubChem BioAssay AID504444 (National Center for Advancing Translational Sciences (NCATS), 2011).
In all, about 360,000 compounds went through this assay and about 7,500 (2.1%) were called active. Inconclusive means that the source gave no clear call. Such entries were picked first, then a sample of the others. The call rests on the fitted dose curve; in most records, active means well fitted inhibition curve with a large enough effect; inconclusive means small, poorly fitted or top-dose-only effect, or effect the other way; inactive means flat fitted curve, though single readings scatter. Potencies beside an inconclusive call are fits to weak or partial responses and may not hold up.

assay: Nrf2 qHTS screen for inhibitors; details: A549 ARE-Fluc reporter, luciferase luminescence, 18-24 h; series mostly up to 46 µM; further: nearly all actives have a fitted effect of over 60% in size
Procedure, shortened: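 In this cell-based qHTS, ARE-driven firefly luciferase in A549 cells reports Nrf2 activity; the luminescent signal after BugLite lysis is the measured value, with a prior CellTiter-Fluor read for cell health.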
Potency means the concentration at half of the fitted maximal effect.

**Q.** With `Cc1cc(C)cc(-n2ccn(CC(=O)c3ccc(F)cc3)c(=O)c2=O)c1` as the compound, how does the Potency read?
**A.** Its Potency is inconclusive: 13 µM [activator, partial curve].

**Q.** With `O=C(NC1CCCCC1)c1ccc(CSc2nc3cccnc3n2Cc2cccc(F)c2)cc1` as the compound, how does the Potency read?
**A.** The Potency was inconclusive: 18.4 µM [falling, single point].

**Q.** Which Potency does the source give for `O=C(CN1CCN(c2ccc(O)cc2)CC1)Nc1ccc(S(=O)(=O)N2CCCC2)cc1` here?
**A.** Its Potency is inconclusive: 29.1 µM [falling, single point].

**Q.** Which Potency does the source give for `C(=C/c1nccc2c1[nH]c1ccccc12)/c1ccc2c(c1)OCO2` here?
**A.** Its Potency is inconclusive: 0.164 µM [activator, full curve, poor fit].

**Q.** Which Potency does the source give for `CC(C)c1ccc(NC(=O)C2CSC3(C)CCC(=O)N23)cc1` (stereo not drawn) here?
**A.** The Potency was “inactive”.

**Q.** For `O=C(Nc1cccc(Br)c1)N1CCN2CCCCC2C1` (stereo not drawn), which Potency is on record?
**A.** The Potency was inconclusive: 14.6 µM [activator, single point].

**Q.** With `COc1ccc(/[N+]([O-])=C/c2ccco2)cc1` as the compound, how does the Potency read?
**A.** The Potency was “inactive”.

**Q.** For `O=C(NCCNC(=O)c1cc(OCC(F)(F)F)ccc1OCC(F)(F)F)Nc1cccc(C(F)(F)F)c1`, which Potency is on record?
**A.** The Potency was inconclusive: 18.4 µM [falling, partial curve, poor fit].

**Q.** With `CC12CCC(=O)C=C1CCC1C2CCC2(C)C(C(=O)CO)CC(O)C12` (stereo not drawn) as the compound, how does the Potency read?
**A.** Its Potency is “inactive”.

**Q.** For `O=C(CSc1nc2ccccc2c(=O)[nH]1)N1CCN(S(=O)(=O)c2ccccc2)CC1`, which Potency is on record?
**A.** The Potency was “inactive”.

**Q.** Which Potency does the source give for `CCCNC(=O)Cn1nc(-c2ccc(OC)cc2)c2cnc3ccc(F)cc3c21` here?
**A.** Its Potency is inconclusive: 23.1 µM [activator, single point].

**Q.** For `COc1ccccc1CC(=O)Nc1ccc2nc(Nc3cccc(C(F)(F)F)c3)cc(C)c2c1`, which Potency is on record?
**A.** Its Potency is inconclusive: 14.6 µM [falling, partial curve, poor fit].

**Q.** Which Potency does the source give for `COc1ccc(NC(=O)CCSc2cc(C)c3ccccc3n2)cc1` here?
**A.** Its Potency is inconclusive: 20.6 µM [falling, partial curve, poor fit].

**Q.** For `C[C@@H](CSc1ccccc1)CN1CC[C@H](C(C)(C)C)CCC1=O`, which Potency is on record?
**A.** The Potency was “inactive”.

**Q.** Which Potency does the source give for `Cc1ccccc1CS(=O)(=O)CCC(=O)N1CCN(c2ccc(N3CCOCC3)nn2)CC1` here?
**A.** The Potency was “inactive”.

**Q.** For `CC(=O)c1ccc(-c2c(C3C4C=CCCC4(C)C(=O)N3Cc3ccccc3)ccc3ccccc23)cc1` (stereo not drawn), which Potency is on record?
**A.** Its Potency is inconclusive: 23.1 µM [falling, single point].

**Q.** For `CCOC(=O)CSc1nc2ccccc2c(=O)n1CC1CCC(C(=O)NCc2ccco2)CC1` (stereo not drawn), which Potency is on record?
**A.** The Potency was inconclusive: 32.6 µM [falling, single point].

**Q.** With `Cc1ccc(C(=O)NCC(=O)Nc2cc(C)ccn2)cc1` as the compound, how does the Potency read?
**A.** The Potency was inconclusive: 16.4 µM [activator, single point].
